In paper PMC8158815:
No constants are given. Whether binding was seen depends on the method and setting. Binding seen in cells or lysates may run through a third protein. Some binding calls cover weakened binding; strength is not graded here. Sequences can lack the tags named with a protein.

Amino acid sequences for entries named in this document (tags omitted).
UniProt O00571: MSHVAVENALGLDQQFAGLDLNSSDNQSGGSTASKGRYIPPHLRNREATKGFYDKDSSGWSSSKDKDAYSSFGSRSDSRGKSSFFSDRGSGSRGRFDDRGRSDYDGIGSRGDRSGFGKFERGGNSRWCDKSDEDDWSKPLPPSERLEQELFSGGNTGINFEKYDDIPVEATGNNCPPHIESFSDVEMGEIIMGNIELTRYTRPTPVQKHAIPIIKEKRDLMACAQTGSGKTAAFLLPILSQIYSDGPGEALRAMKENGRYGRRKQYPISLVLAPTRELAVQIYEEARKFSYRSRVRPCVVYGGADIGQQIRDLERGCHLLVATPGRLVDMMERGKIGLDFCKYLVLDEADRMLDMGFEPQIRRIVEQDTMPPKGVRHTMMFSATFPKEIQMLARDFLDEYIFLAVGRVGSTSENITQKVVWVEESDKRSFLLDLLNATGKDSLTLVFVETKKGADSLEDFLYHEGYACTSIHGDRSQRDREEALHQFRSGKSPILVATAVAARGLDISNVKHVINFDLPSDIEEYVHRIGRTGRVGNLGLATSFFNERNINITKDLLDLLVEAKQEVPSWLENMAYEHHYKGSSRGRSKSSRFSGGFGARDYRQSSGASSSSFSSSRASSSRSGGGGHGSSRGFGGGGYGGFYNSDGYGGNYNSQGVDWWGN

T1: NLRP11-eGFP (stable Flp-In T-REx HEK293 line) (human) (UniProt P59045)
T1 sequence: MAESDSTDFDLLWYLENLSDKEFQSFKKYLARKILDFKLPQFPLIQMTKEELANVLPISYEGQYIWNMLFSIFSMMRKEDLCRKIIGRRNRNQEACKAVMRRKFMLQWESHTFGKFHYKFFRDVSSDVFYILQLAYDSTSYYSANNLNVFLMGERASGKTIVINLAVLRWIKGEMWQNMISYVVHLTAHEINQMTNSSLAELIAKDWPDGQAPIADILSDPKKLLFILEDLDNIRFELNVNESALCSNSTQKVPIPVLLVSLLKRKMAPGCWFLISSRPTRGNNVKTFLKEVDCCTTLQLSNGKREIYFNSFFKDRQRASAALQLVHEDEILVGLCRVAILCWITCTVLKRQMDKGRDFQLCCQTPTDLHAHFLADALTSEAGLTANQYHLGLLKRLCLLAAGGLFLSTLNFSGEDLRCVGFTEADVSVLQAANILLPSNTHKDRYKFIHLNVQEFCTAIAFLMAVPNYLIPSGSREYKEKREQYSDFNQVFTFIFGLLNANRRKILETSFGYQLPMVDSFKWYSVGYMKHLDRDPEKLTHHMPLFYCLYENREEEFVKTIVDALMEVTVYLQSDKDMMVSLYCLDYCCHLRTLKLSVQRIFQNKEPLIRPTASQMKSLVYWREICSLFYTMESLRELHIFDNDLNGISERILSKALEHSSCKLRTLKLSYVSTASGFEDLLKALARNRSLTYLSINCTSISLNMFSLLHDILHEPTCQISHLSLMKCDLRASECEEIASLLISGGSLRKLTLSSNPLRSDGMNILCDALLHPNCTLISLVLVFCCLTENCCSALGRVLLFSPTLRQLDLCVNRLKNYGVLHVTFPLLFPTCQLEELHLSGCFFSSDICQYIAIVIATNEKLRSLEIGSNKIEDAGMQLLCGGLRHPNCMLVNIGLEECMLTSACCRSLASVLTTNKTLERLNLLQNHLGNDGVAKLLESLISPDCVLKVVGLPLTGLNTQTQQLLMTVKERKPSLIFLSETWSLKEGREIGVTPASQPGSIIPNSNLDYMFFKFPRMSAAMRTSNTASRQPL


What was measured:
[1] = biological target: T1, NLRP11-eGFP (stable Flp-In T-REx HEK293 line) (human); assay: co-IP; GFP-Trap agarose precipitation of NLRP11-eGFP (or eGFP as control) from doxycycline-induced HEK293 FlpIn cells, 4°C, 3 h; blot for endogenous DDX3X; also after Sendai virus infection for the indicated times
eGFP-DDX3X (human) = eGFP-DDX3X (human) (UniProt O00571); assay: co-IP; GFP-Trap agarose precipitation of eGFP-DDX3X (or empty vector) from transiently transfected HEK293T cells co-expressing myc-NLRP11 constructs, 4°C, 3 h; blot for myc

binding [1] | binding (eGFP-DDX3X (human)) | Molecule
binds | – | DDX3X (endogenous, HEK293) (from UniProt O00571 1-662)
– | binds weakly | myc-NLRP11 NACHT (domain or fragment, UniProt P59045 147-470) LNVFLMGERASGKTIVINLAVLRWIKGEMWQNMISYVVHLTAHEINQMTNSSLAELIAKDWPDGQAPIADILSDPKKLLFILEDLDNIRFELNVNESALCSNSTQKVPIPVLLVSLLKRKMAPGCWFLISSRPTRGNNVKTFLKEVDCCTTLQLSNGKREIYFNSFFKDRQRASAALQLVHEDEILVGLCRVAILCWITCTVLKRQMDKGRDFQLCCQTPTDLHAHFLADALTSEAGLTANQYHLGLLKRLCLLAAGGLFLSTLNFSGEDLRCVGFTEADVSVLQAANILLPSNTHKDRYKFIHLNVQEFCTAIAFLMAVPNYL
